Whole data set: some 33,000 sequences, median “E-score (-0.5 to 0.5)” near -0.016, cut for the highest 2% near 0.3. The list shows a part of the results.
Biological target: T1, Yer184c (UniProt P39961)
T1 sequence: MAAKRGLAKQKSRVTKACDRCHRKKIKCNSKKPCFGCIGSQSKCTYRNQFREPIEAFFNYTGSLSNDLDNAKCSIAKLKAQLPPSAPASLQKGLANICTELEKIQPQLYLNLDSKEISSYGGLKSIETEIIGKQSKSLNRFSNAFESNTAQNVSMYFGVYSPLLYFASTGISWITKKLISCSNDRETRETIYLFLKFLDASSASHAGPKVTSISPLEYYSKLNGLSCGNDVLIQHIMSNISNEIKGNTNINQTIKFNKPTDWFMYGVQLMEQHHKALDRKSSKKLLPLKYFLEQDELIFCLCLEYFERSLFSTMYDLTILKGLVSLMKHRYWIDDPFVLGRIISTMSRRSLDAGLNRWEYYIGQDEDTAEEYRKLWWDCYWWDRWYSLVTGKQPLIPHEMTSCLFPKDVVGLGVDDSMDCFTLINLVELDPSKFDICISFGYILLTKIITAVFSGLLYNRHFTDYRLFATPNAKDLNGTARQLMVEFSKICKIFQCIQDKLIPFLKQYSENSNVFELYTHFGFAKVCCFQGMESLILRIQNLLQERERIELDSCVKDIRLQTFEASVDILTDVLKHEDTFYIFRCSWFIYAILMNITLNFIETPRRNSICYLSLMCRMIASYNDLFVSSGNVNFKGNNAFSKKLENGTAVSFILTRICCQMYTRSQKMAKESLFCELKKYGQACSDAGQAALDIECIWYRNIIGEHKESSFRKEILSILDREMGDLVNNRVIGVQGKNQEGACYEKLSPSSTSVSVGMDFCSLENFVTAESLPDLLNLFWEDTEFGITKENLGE
Assay: PBM E-score (8-mer binding enrichment) (E-score (-0.5 to 0.5)); higher = stronger / more preferred TF binding
Settings: protein concentration: 100 nM; construct: GST-full length
Outline: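 Bound GST-tagged yeast transcription factors, applied at about 100-200 nM to double-stranded universal all-10-mer Agilent arrays, were detected with fluorescent anti-GST. Scans were normalised with masliner. A modified Wilcoxon-Mann-Whitney statistic, the E-score, was assigned to each ungapped eight-base word pooled with its reverse complement by the Universal PBM Analysis Suite.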

Row | Sequence | PBM E-score
1 | ATTAACAA | 0.247
2 | GAACACCA | -0.0328
3 | GAATGACC | 0.0373
4 | AATAGTTA | -0.00148
5 | ACGCCTAC | -0.266
6 | CCTTCCGC | 0.0188
7 | ACCCATCC | -0.179
8 | AAGTGGGG | -0.246
9 | GAGCAATA | 0.0587
10 | AGCACTTC | -0.043
11 | CATTAGTA | -0.0008
12 | TCGATAGA | 0.0326
13 | TCGTTAAA | 0.166
14 | CACATCTC | -0.193
15 | TCATCAAA | -0.0378
16 | AAGTGGAG | -0.0286
17 | CACGACGA | -0.0485
18 | AACGGTGA | -0.0245
19 | AATACAAT | 0.152
20 | ATCCGTTC | 0.29
21 | CAAAACGA | 0.13
22 | ATGAGATC | 0.011
23 | CAAATTAA | 0.0386
24 | GAGGATCC | 0.116
25 | GTCTCGTA | -0.142

Some of the entries so far, with each value named.
GAACACCA
  PBM E-score = -0.0328
GAATGACC
  PBM E-score = 0.0373
AATAGTTA
  PBM E-score = -0.00148
ACGCCTAC
  PBM E-score = -0.266

(listing goes on)

Row | Sequence | PBM E-score
26 | ACACATGC | -0.0896
27 | TAAACAGA | 0.122
28 | ATCACCTA | -0.207
29 | AATCATGC | 0.0333
30 | CTCAAGCA | -0.183
31 | CATTCTGC | 0.0316
32 | TTCGTCAA | 0.0319
33 | AAGAACGT | 0.0621
34 | CCCCATGC | -0.191
35 | ATCAGTAC | 0.0801
36 | CAGACCCG | 0.179
37 | ACGGGCAA | -0.0249
38 | CTACTATC | 0.196
39 | GTCTAAAC | 0.117
40 | CAATTCAG | -0.0853
41 | GCGTATGA | -0.0801
42 | AATTATAG | 0.0808
43 | AACCAATG | -0.0313
44 | AAGCCAAC | -0.041
45 | AGGTAAGA | 0.0318
46 | CTAGCGAG | -0.128
47 | ATCAACAT | 0.13
48 | CCAGTCCC | -0.247
49 | TGCCTCCA | -0.411
50 | CAGCGTGC | -0.0824

In a second layout: entries from further up
Row	Sequence	PBM E-score
2	GAACACCA	-0.0328
37	ACGGGCAA	-0.0249

Following part.

Row | Sequence | PBM E-score
51 | ATTTTCAC | 0.19
52 | CGAATATC | 0.0862
53 | CACCTGAG | -0.255
54 | AGGATAAG | -0.0488
55 | ACAGGAAT | 0.0563
56 | GACCAGGA | -0.223
57 | TGGGTGAA | 0.182
58 | GCGGCTAA | 0.186
59 | CGATCGAC | 0.0882
60 | ATTCAATA | 0.143
61 | TATTCTAA | 0.181
62 | TTCATCAA | 0.0967
63 | TAGCATGA | -0.107
64 | ACCGTGTG | 0.0157
65 | GAGGTCTA | -0.226
66 | GTTAGGCA | -0.133
67 | CGCAATCC | 0.17
68 | AATTACTC | 0.242
69 | ACTGTCAG | -0.044
70 | CGGCTTTC | 0.264
71 | AGCTAGAG | -0.115
72 | ACCCCTCT | -0.271
73 | ACTCCTTC | -0.167
74 | CTCGGAAG | 0.245
75 | GACCTCTC | 0.0267

Row | Sequence | PBM E-score
76 | AACTACCG | 0.0299
77 | CTAGAGAC | -0.174
78 | GGGGTTGA | -0.254
79 | GATAAACC | 0.208
80 | CGGGTCGA | 0.0732
81 | ACATGTGC | -0.0537
82 | ACGGATTG | 0.161
83 | GATGCTGC | -0.162
84 | CCTACCGA | -0.129
85 | AAAGGGTG | -0.16
86 | CGTTGGCA | -0.0149
87 | AACATCGT | -0.0145
88 | CTGACGCC | -0.224
89 | CTGCCCCC | -0.436
90 | AAAGGTAG | -0.169
91 | ACCACCTA | -0.233
92 | CACTGAAC | 0.166
93 | ACGCGGTC | 0.00037
94 | ATCCCTAG | -0.0477
95 | AAGGGCAC | -0.312
96 | GCATTGCA | -0.0815
97 | CGGAGTCC | 0.131
98 | CGCGGCTA | 0.283
99 | ACTCATAA | 0.0564
100 | AGCTCATG | -0.175

Row | Sequence | PBM E-score
101 | CTCTAAAG | -0.12
102 | ACGCAACC | 0.0278
103 | CCAAATAG | -0.175
104 | CATAAATA | -0.0233
105 | CGGTGTAC | -0.0899
106 | CTGAAAAC | 0.125
107 | TCGAACGA | -0.154
108 | ATACTGAC | 0.0876
109 | GAGGTATC | -0.141
110 | GCGATGGA | 0.17
111 | AGTATATA | 0.334
112 | CGCCCCAC | -0.197
113 | AACGAGCC | -0.102
114 | AGCTTGCC | 0.0378
115 | AGGACTCC | -0.243
116 | CCACTAGA | -0.299
117 | CCCACGAG | -0.161
118 | ACGTGGAG | -0.352
119 | CCGGCTAC | 0.267
120 | AGACTGTC | -0.112
121 | ATGCCCTA | -0.265
122 | CCTCTTCG | -0.00118
123 | CTTGCCTC | -0.0167
124 | CCTGGGCA | -0.276
125 | ATTAAGCG | 0.01

Row | Sequence | PBM E-score
126 | ACGTCTAT | -0.171
127 | CGTCCGGA | 0.323
128 | CACGTATA | -0.0539
129 | GGCAAACC | -0.11
130 | AGCGTTCA | -0.306
131 | AAATCTGA | 0.105
132 | AGCTATGA | -0.0916
133 | CATCGGAC | 0.174
134 | GCGGTGAA | 0.132
135 | TAACCTCA | -0.0603
136 | CATACCTC | -0.00547
137 | GGACTCCA | -0.159
138 | AGAAAACG | -0.0118
139 | CCCCATGA | -0.189
140 | ACCATCCA | -0.154
141 | CCATCAAG | -0.143
142 | AGCCTGAC | -0.194
143 | GCATGTAA | -0.171
144 | ATCAGGCA | -0.134
145 | ACCTCTCT | -0.3
146 | GACCCACC | -0.316
147 | GATACCCA | -0.0454
148 | AACGCTCC | -0.15
149 | CACATTAA | -0.0677
150 | TAGATCAA | 0.0823

Row | Sequence | PBM E-score
151 | CAATCTGG | -0.145
152 | AAAGTGAT | 0.189
153 | AAAGCGTA | -0.0609
154 | GCACGATA | 0.0572
155 | ACTAAAGC | 0.0412
156 | ACTCATCC | 0.0505
157 | AAACAGCC | -0.0542
158 | ATGATTGG | 0.0325
159 | GCTACGAA | 0.0207
160 | AGTAACGA | 0.0513
161 | GACACATA | 0.0718
162 | AGGAACTC | -0.0102
163 | CGCTTGAG | -0.0766
164 | AAGCGACA | -0.0772
165 | AACGCAGC | 0.0751
166 | AAGGTAGT | -0.0814
167 | AGATAAAA | 0.187
168 | AATTTCGT | 0.163
169 | CGATATCA | 0.0879
170 | CACCGTCC | -0.184
171 | GCCGGTGA | 0.235
172 | AATCGCCG | 0.261

Taken from above.
CAATTCAG | PBM E-score: -0.0853
ACCATCCA | PBM E-score: -0.154

— the supplement of paper PMC3334620
